Test [1] has as its target T1, Flag-tagged FBXO9 (wild type) (UniProt Q9UK97).
T1 sequence: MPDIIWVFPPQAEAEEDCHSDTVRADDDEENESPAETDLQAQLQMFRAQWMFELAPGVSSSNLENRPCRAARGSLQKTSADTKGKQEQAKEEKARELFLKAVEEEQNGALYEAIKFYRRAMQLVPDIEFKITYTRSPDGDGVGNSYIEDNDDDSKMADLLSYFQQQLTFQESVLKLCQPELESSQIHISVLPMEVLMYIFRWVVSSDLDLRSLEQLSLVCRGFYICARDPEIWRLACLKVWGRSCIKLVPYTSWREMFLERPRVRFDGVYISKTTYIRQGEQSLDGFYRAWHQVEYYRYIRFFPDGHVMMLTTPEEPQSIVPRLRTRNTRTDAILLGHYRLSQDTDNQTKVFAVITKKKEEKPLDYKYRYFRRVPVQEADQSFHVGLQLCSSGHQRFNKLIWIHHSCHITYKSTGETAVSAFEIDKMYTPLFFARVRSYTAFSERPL
Kind of test: co-IP; Flag-FBXO9 and Myc-YAP (wild type, S338A/T342A or deletion mutants) co-transfected into HEK293 cells for 24 h; total lysates subjected to IP and Western blot. On the technique in general: In western blotting, separated proteins are transferred to a membrane and probed.

The chains behind the UniProt entries cited, without tags or fusion partners.
UniProt Q969H0: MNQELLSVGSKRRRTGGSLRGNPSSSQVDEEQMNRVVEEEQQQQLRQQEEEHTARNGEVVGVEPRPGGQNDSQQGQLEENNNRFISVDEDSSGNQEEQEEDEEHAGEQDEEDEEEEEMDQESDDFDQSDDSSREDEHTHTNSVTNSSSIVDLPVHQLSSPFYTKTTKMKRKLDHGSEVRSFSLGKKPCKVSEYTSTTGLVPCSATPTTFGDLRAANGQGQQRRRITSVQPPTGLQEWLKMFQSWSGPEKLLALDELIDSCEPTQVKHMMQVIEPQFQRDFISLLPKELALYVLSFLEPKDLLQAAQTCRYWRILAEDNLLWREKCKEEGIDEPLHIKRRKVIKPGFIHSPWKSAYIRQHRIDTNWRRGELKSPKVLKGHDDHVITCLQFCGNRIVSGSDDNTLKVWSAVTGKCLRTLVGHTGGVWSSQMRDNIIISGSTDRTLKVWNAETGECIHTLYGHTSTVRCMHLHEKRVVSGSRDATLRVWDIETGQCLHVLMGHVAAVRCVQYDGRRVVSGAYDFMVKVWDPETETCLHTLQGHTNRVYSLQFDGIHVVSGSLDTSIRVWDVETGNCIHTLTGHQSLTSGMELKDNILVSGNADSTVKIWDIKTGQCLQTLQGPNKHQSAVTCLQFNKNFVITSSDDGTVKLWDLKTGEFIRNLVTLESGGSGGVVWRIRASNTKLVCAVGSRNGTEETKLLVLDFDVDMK
UniProt P49841: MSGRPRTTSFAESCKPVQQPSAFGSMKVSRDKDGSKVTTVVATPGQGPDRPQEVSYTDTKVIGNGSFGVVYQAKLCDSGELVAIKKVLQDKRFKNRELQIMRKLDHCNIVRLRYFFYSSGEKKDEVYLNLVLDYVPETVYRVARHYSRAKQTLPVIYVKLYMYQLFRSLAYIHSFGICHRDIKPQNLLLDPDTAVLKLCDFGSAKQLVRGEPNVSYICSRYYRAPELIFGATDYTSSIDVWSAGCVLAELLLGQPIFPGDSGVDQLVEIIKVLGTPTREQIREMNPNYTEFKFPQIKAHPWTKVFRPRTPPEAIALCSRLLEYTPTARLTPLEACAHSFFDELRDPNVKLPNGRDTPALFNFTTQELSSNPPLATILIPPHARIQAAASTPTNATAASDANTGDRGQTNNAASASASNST

Test [2] has as its target T1, Flag-tagged FBXO9 (wild type). The test is described as follows: co-IP; T-24 and 5637 cells transfected as indicated for 12 h, then normal or hypoxic conditions for 4 h; IP with an anti-Flag antibody, Western blot.
Test [3] addresses FBXW7 (in bladder cancer cells; endogenous or transfected not told) (UniProt Q969H0). The test is described as follows: co-IP; BC cells with FBXO9 silenced (Fig. S1G); legend not shown.
In a further test the target is Flag-GSK-3β (UniProt P49841). Kind of test: co-IP; HEK293 cells transfected as indicated for 24 h; IP for GSK-3β with anti-Myc or anti-Flag antibodies, Western blot.
Another test concerns the target Myc-GSK-3β (UniProt P49841). The description is as above.
For the next test, the target named is Flag-tagged FBXW7 (UniProt Q969H0). Kind of test: co-IP; Flag-tagged F-box proteins (or Flag-FBXO9 wild type and deletion mutants) transfected into HEK293 cells; lysates precipitated with FLAG-conjugated beads, Western blot for YAP; also with FBXW7 and FBXO9 co-expressed (Fig. S1E).
For test [4], the target named is T1, Flag-tagged FBXO9 (wild type). Described as above.
Test [5] addresses T2, endogenous FBXO9 (human (endogenous in T-24, 5637, HEK293)) (UniProt Q9UK97).
T2 sequence: T1 sequence
Kind of test: co-IP; endogenous proteins in T-24, 5637 and HEK293 lysates; also T-24 with or without the GSK-3β inhibitor TDZD-8 for 8 h (interaction substantially reduced) and BC cells with FBXW7 knocked down (binding promoted).

No constants are given. Whether binding was seen depends on the method and setting. In cells and extracts the contact can be indirect. Some entries that bind do so weakly or less than the wild type. For some assays here: Tags and fused reporters may be left off the sequences shown.

This is an account of results in publication PMC12509758.

For the substance “Myc-tagged YAP (wild type) (from UniProt P46937-8 1-492)”, in test [1], the binding entry is “binds”.
For “YAP (in lysates of cells 'transfected as indicated'; endogenous or transfected not told) (from UniProt P46937-8 1-492)”, the binding entry (in test [2]; in test [3]; in the test with Flag-GSK-3β; with Myc-GSK-3β) was “binds” each time.
As for “endogenous YAP (Yes-associated protein) (from UniProt P46937-8 1-492)”, the binding entry (with Flag-tagged FBXW7; in test [4]; in test [5]) was “binds” throughout.
